From US20120058118A1
These are yes or no findings as the source states them, for the method shown. Some results given as binding are weak or reduced against the parent protein; the word gives no strength.

Molecular target: His.Xa.Abeta1-28.GS.p38 fusion protein
Assay: size exclusion chromatography of a 1:2 mixture, SDS-PAGE of the peaks

- binding: binds
B1: 60A10-27GS-42D4-Alb (designed binder, not shown: large carriers)
chain: EVQLVESGGGLVQAGGSLRLSCAASGRTFNNYNMGWFRQAPGKEREFVAAVSRSGVSTYYADSVKGRFTISRDNAKNAVYLQMNSLKPEDTAIYYCGAAYRGTAINVRRSYDSWGQGTQVTVSSGGGSGGGGSGGGGSGGGGSGGGGSGGGEVQLVESGGGLVLAGGSLRLSCVHSGPTFSTDTMGWFRQAPGKEREFVAAVTWNSGRTNYADSVKGRFTVSRDNTRNAAYLQMSGLKDEDTAVYYCTAHRLVVGGTSVGDWRYWGQGTQVTVSS
